From paper PMC9411329
No constants are given. Whether binding was seen depends on the method and setting. In cells and extracts the contact can be indirect. Some entries that bind do so weakly or less than the wild type. One block for each molecule: values may come before it.

Amino acid sequences for entries named in this document (tags omitted).
UniProt O14980: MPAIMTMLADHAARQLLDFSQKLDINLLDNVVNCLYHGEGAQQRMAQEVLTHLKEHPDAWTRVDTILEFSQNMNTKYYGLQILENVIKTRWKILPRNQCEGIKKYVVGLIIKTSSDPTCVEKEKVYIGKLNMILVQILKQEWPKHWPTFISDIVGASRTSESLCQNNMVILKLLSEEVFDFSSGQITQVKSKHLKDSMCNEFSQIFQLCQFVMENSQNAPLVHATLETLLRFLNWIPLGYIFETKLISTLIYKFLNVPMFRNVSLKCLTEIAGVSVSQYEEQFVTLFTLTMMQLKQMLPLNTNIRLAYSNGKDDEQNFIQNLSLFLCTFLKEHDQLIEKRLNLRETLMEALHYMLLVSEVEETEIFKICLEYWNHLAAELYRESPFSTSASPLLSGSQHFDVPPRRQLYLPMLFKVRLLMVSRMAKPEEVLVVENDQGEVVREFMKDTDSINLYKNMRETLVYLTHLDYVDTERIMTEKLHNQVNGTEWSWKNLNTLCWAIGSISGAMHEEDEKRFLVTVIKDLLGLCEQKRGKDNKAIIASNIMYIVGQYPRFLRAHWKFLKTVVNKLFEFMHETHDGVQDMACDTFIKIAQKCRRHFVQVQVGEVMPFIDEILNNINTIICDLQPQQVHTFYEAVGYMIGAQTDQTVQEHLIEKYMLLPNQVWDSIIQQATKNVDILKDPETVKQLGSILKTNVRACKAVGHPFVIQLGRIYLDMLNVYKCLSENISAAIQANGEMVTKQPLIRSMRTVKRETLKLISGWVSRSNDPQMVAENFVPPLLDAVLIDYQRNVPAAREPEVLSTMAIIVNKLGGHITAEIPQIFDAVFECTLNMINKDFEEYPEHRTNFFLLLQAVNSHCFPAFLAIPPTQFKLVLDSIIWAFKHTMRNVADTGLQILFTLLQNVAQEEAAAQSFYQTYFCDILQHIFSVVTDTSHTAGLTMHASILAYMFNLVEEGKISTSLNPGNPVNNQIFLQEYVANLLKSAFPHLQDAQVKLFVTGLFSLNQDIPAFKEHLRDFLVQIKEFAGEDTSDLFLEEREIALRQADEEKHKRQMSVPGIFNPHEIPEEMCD
UniProt Q9UMX0: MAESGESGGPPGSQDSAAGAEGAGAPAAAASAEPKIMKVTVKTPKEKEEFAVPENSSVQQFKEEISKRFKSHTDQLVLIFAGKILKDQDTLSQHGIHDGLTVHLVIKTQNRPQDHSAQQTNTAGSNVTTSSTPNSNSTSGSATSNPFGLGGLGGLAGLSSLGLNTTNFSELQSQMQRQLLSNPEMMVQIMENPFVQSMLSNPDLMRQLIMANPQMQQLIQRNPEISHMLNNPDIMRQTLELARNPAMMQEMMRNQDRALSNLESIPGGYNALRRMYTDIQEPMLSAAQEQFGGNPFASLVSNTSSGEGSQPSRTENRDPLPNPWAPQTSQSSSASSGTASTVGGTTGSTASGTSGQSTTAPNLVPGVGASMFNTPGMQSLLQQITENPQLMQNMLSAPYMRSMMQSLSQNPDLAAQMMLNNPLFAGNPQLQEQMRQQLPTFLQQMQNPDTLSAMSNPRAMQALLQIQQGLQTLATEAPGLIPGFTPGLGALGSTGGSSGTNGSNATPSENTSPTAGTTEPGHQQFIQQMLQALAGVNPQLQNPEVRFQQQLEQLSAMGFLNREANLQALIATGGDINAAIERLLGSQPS

Tests used:
[1] = target: exportin-1 (human (endogenous in Jurkat)) (UniProt O14980); assay: co-IP; Jurkat cell lysates (whole cell lysates for Fig. 2e,f); IP of ubiquilin-1 or exportin-1 on Protein A/G magnetic beads overnight at 4 °C, Western blot; cells with or without LMB pretreatment, lysates with or without 10 µM GTPγS for 15 min on ice
[2] = target: exportin-1 (human (endogenous in Jurkat)) (UniProt O14980); assay: co-IP; lysates of EVs released by WT and CD47-deficient Jurkat T cells (untreated, 20 nM LMB or TSP1 treated cells); IP with exportin-1 antibody on magnetic beads overnight at 4 °C in PBS with Triton X-100, Western blot
[3] = target: ubiquilin-1 (human (endogenous in Jurkat)) (UniProt Q9UMX0); assay: co-IP; Jurkat cell lysates (whole cell lysates for Fig. 2e,f); IP of ubiquilin-1 or exportin-1 on Protein A/G magnetic beads overnight at 4 °C, Western blot; cells with or without LMB pretreatment, lysates with or without 10 µM GTPγS for 15 min on ice

binding [1]: binds
binding [2]: binds
Molecule: ubiquilin-1 (from UniProt Q9UMX0 1-589)

binding [3]: binds
Molecule: exportin-1 (from UniProt O14980 1-1071)

binding [2]: binds
B1: Ran binding protein-3 (protein, UniProt Q9H6Z4 1-567)
chain: MADLANEEKPAIAPPVFVFQKDKGQKSPAEQKNLSDSGEEPRGEAEAPHHGTGHPESAGEHALEPPAPAGASASTPPPPAPEAQLPPFPRELAGRSAGGSSPEGGEDSDREDGNYCPPVKRERTSSLTQFPPSQSEERSSGFRLKPPTLIHGQAPSAGLPSQKPKEQQRSVLRPAVLQAPQPKALSQTVPSSGTNGVSLPADCTGAVPAASPDTAAWRSPSEAADEVCALEEKEPQKNESSNASEEEACEKKDPATQQAFVFGQNLRDRVKLINESVDEADMENAGHPSADTPTATNYFLQYISSSLENSTNSADASSNKFVFGQNMSERVLSPPKLNEVSSDANRENAAAESGSESSSQEATPEKESLAESAAAYTKATARKCLLEKVEVITGEEAESNVLQMQCKLFVFDKTSQSWVERGRGLLRLNDMASTDDGTLQSRLVMRTQGSLRLILNTKLWAQMQIDKASEKSIRITAMDTEDQGVKVFLISASSKDTGQLYAALHHRILALRSRVEQEQEAKMPAPEPGAAPSNEEDDSDDDDVLAPSGATAAGAGDEGDGQTTGST
